From the supplement of paper PMC11637464 come the findings set out here.

For assay [1], the system named is primary mouse Muller glia with Ascl1 overexpression. Put plainly: progenitor-like (ProL) cell count fold change vs Ascl1-only control (log2 fold change); higher = more progenitor-like cells.
For assay [2] the test system is unchanged. Put plainly: Neuronal cell count fold change vs Ascl1-only control (log2 fold change); higher = more neurogenesis.

Where a name gives a salt, the structure may show the parent alone. Some of the results follow. Single values are uncertain, as repeats are few or missing.

Regarding `O=C(NO)c1ccc2[nH]c(=O)c(CCCc3ccccc3)nc2c1` (collection day: 2), the “progenitor-like (log2)” value in assay [1] (0.1 µM) is -0.134; in assay [1] (1 µM), 0.29; in assay [1] (10 µM) it was -0.737.
`O=C(NC1CCOCC1)c1ccc(-c2cc(-c3c[nH]nc3-c3ccccn3)ccn2)cc1` (collection day: 2): the “Neuronal cell count fold change” value was 0.547 in assay [2] (0.1 µM), 0.387 in assay [2] (1 µM) and 0.759 in assay [2] (10 µM).
`CCn1c(=O)[nH]c2ccccc21` (collection day: 1): the “progenitor-like (log2)” value in assay [1] (0.1 µM) stood at 0.399; in assay [1] (1 µM), 0.541; in assay [1] (10 µM), 0.295.
Take `CN1CCC[C@@H]1CCO[C@](C)(c1ccccc1)c1ccc(Cl)cc1` [Clemastine fumarate] (collection day: 1): the “Neuronal cell count fold change” value in assay [2] (0.1 µM) was -0.943; in assay [2] (1 µM) it was -0.837. Further, the “progenitor-like (log2)” value in assay [1] (0.1 µM) was found to be 0.541; in assay [1] (1 µM) it was 0.628.
Take `Cc1ccc(-c2cn3c4c(sc3n2)CCCC4)cc1` [Cyclic Pifithrin-alpha hydrobromide] (collection day: 2): in assay [1] (0.1 µM), the “progenitor-like (log2)” value is 0.236.
With `CC(=O)N(C)c1cccc(-c2ccc3nnc(C)n3n2)c1` (collection day: 2), the “progenitor-like (log2)” value turned out to be 0.209 in assay [1] (0.1 µM), 0.181 in assay [1] (1 µM) and 0 in assay [1] (10 µM).
Turning to `COC(=O)C1=C(C)NC(C)=C([N+](=O)[O-])C1c1ccccc1C(F)(F)F` (stereo not given) (collection day: 1), the “progenitor-like (log2)” value was 0.447 in assay [1] (0.1 µM), 0.826 in assay [1] (1 µM) and 0.447 in assay [1] (10 µM).
In the case of `O=C(O)c1ccccc1C(=O)Nc1ccc(-c2ccccc2)cc1` [Kartogenin] (collection day: 2), the “Neuronal cell count fold change” value is 0.387 in assay [2] (0.1 µM), -0.531 in assay [2] (1 µM) and 0 in assay [2] (10 µM).
In the case of `O=C(O)CCCc1ccccc1` [Sodium 4-Phenylbutyrate] (collection day: 1), the “progenitor-like (log2)” value was 0.495 in assay [1] (0.1 µM), -0.138 in assay [1] (1 µM) and -0.29 in assay [1] (10 µM).
Consider `c1ccc2c(Oc3nc(Nc4ccc(N5CCOCC5)cc4)c4ncn(C5CCCCC5)c4n3)cccc2c1` [Purmorphamine] (collection day: 2), for which the figures for the “progenitor-like (log2)” value in assay [1] (0.1 µM), in assay [1] (1 µM) and in assay [1] (10 µM) were 0.0317, 0.341 and 0.596, respectively.
For `CN(C)CCOc1cc(-c2cn[nH]c2)ccc1NC(=O)C1COc2ccccc2O1` (stereo not given) [SR 3677 dihydrochloride] (collection day: 2), the entries for the “Neuronal cell count fold change” value in assay [2] (0.1 µM) and in assay [2] (10 µM) were -0.241 and 0.547, respectively.
For `Cc1ccccc1N=Nc1ccc(NC(=O)c2ccnn2C)c(C)c1` (collection day: 2), the “progenitor-like (log2)” value is 0 in assay [1] (0.1 µM) and -0.0324 in assay [1] (1 µM).
As for `CCCC[S+]([O-])c1sc2nc(-c3cccs3)cc(-c3ccccc3)c2c1N` (stereo not given) (collection day: 2), the entries for the “Neuronal cell count fold change” value in assay [2] (1 µM) and in assay [2] (10 µM) were 0.206 and -1.7, respectively. The “progenitor-like (log2)” value is -0.134 in assay [1] (1 µM) and -0.206 in assay [1] (10 µM).
In the case of `COc1cc2c(cc1-c1c(C)noc1C)ncc1[nH]c(=O)n([C@H](C)c3ccccn3)c12` [I-BET 151 dihydrochloride] (collection day: 2), the “Neuronal cell count fold change” value is -1.12 in assay [2] (0.1 µM), -3.7 in assay [2] (1 µM) and -2.12 in assay [2] (10 µM).
